Assay results taken from PubChem BioAssay AID540276 (National Center for Advancing Translational Sciences (NCATS), 2011).
In all, about 300,000 compounds went through this assay and about 5,400 (1.8%) were called active. This list was built around the results that the source calls inconclusive (neither active nor inactive); the mix of calls is not that of the screen. Calls come from the whole dose curve; tested in HEK293 cells. Potencies beside an inconclusive call are fits to weak or partial responses and may not hold up.

Experiment: qHTS for inhibitors of binding or entry into cells for Marburg Virus
Conditions: Marburg virus pseudotyped entry inhibition, cell reporter; activity change, negative = inhibition: at 37.8 µM (top of the series) unless noted
% is set by controls: 0 for no effect and ±100 for the full control effect; potency is the fitted concentration of half-maximal effect.

Row | Structure (SMILES) | Potency | activity change, negative = inhibition
1 | Cc1ccc(Cn2ccccc2=N)cc1 | inconclusive: 22.4 µM [inhibitor, single point] | 
2 | Cc1c(C(=O)NCc2ccccc2)c(-c2ccccc2)nn1-c1ccccc1 | inconclusive: 9.2 µM [inhibitor, partial curve, poor fit] | 
3 | COc1ccc(Br)cc1CNC(=O)C1CCCN(c2nc3ccccc3o2)C1 (configuration not stated) | inconclusive: 29.1 µM [inhibitor, single point] | 
4 | O=C(Cc1c[nH]c2ccccc12)NC1(C(=O)NC2CCCCC2)CCCCC1 | inconclusive: 17.8 µM [inhibitor, single point] | 
5 | O=C(Cc1ccc(S(=O)(=O)N2CCCCC2)s1)Nc1ccc(F)c(F)c1 | inconclusive: 11.2 µM [inhibitor, single point] | 
6 | CCOC(=O)CCNC(=O)N1CCCC(CNS(=O)(=O)c2cccs2)C1 (configuration not stated) |  | inactive: 13.4%
7 | O=C(OCc1cc(=O)oc2cc(O)ccc12)c1cc(S(=O)(=O)N2CCOCC2)ccc1F | inconclusive: 35.5 µM [inhibitor, single point] | 
8 | CCOC(=O)c1c(CN2CCNCC2)nc2ccc(Cl)cc2c1-c1ccccc1 | inconclusive: 7.94 µM [inhibitor, partial curve, poor fit] | 
9 | Oc1ccc(-c2nc3ccccn3c2NCc2ccc3c(c2)OCO3)cc1 |  | inactive: -6.26%
10 | CC(C)n1c2ccccc2c2nnc(SCC(=O)Nc3ccccc3C(=O)O)nc21 |  | inactive: 25.8% [at 46.1 µM]
11 | CC(C)(C)c1ccc(S(=O)(=O)NCC(=O)N2CCN(Cc3ccccc3)CC2)cc1 | inconclusive: 12.6 µM [inhibitor, partial curve, poor fit] | 
12 | Cc1ccc(NC(=O)CN2C(=O)NC3(CCc4ccccc43)C2=O)cc1 (configuration not stated) | inconclusive: 5.62 µM [inhibitor, partial curve, poor fit] | 
13 | Nc1sc(-c2ccccc2)cc1C(=O)O |  | inactive: 0.0113%
14 | O=C(NC1CCCC1)c1ccc2c(c1)N(Cc1ccc(C(F)(F)F)cc1)C(=O)c1ccccc1S2 |  | inactive: -23.5% [at 46.1 µM]
15 | COc1cccc(C2c3cc4c(cc3OC(C)(N3CCCC3)C2C)OCO4)c1O (configuration not stated) | inconclusive: 7.08 µM [inhibitor, full curve, poor fit] | 
16 | CSc1ccc(CN2CCN(C(=O)COc3ccc(C)cc3)CC2)cc1 | inconclusive: 20.6 µM [inhibitor, single point] | 
17 | CCN(CC)CCCNC(=O)c1cc(Sc2nnc(C)s2)nc2ccccc12 | inconclusive: 20.6 µM [inhibitor, partial curve, poor fit] | 
18 | CCOc1ccc(S(=O)(=O)N2CCCC(C(=O)N3CCOCC3)C2)cc1Cl (configuration not stated) | inconclusive: 6.31 µM [activator, single point] | 
19 | CCOc1ccc(-c2nc(C#N)c(NCc3ccco3)o2)cc1 |  | inactive: 5.37% [at 46.1 µM]
20 | CCc1ccccc1NC(=S)N(CCCN1CCOCC1)Cc1cccs1 |  | inactive: -0.608%
21 | O=C(CCc1nc2cccnc2n1Cc1cccs1)Nc1cccc(C(F)(F)F)c1 | inconclusive: 22.4 µM [inhibitor, single point] | 

Row | Structure (SMILES) | Potency | activity change, negative = inhibition
22 | CCCN(CCC)S(=O)(=O)c1ccc(Cl)c(OC)c1 | inconclusive: 35.5 µM [inhibitor, single point] | 
23 | CCOc1ccc(OCC(=O)Nc2cccc(S(=O)(=O)NC3=NCCC3)c2)cc1 | inconclusive: 3.55 µM [inhibitor, full curve] | 
24 | CCCOC(=O)c1ccc(NC(=O)C2C3CCC(C3)C2C(=O)O)cc1 (configuration not stated) | inconclusive: 2.24 µM [activator, partial curve, poor fit] | 
25 | CN(C)S(=O)(=O)N1CCC(Oc2cccc(C(=O)NC3CCCCCC3)c2)CC1 | inconclusive: 12.6 µM [inhibitor, partial curve] | 
26 | C=CCSC1=C(C#N)C(c2ccccc2Cl)C(C(=O)c2cccs2)C(O)(C(F)(F)F)N1 (configuration not stated) | inconclusive: 22.4 µM [inhibitor, single point] | 
27 | Nc1nc(SCc2ccccc2[N+](=O)[O-])c2ncn(Cc3ccccc3)c2n1 | inconclusive: 2.24 µM [inhibitor, partial curve, poor fit] | 
28 | C=CCOCCN1C(=O)C2C(c3ccccc3)C=CC(c3ccccc3)C2C1=O (configuration not stated) | inconclusive: 15.8 µM [inhibitor, partial curve, poor fit] | 
29 | CCOc1ccc(-c2cnc(NCc3ccc(C(F)(F)F)cc3)n2C)cc1 | inconclusive: 25.1 µM [inhibitor, single point] | 
30 | CCOc1ccc(-n2c(SCC(=O)Nc3cccc(Cl)c3)nc3c(oc4ccccc43)c2=O)cc1 |  | inactive: -21.9% [at 46.1 µM]
31 | Cc1cc(C)nc(NC(=NCc2ccc3c(c2)OCO3)NC(=O)Nc2ccccc2)n1 | inconclusive: 1.64 µM [inhibitor, partial curve, poor fit] | 
32 | O=C(Nc1cc(S(=O)(=O)N2CCCCC2)ccc1Cl)C1COc2ccccc2O1 (configuration not stated) | inconclusive: 35.5 µM [inhibitor, single point] | 
33 | Cc1ccccc1CS(=O)(=O)Cc1ccc(C(=O)NCc2ccccn2)o1 |  | inactive: 1.75%
34 | Cc1ccc(CN(C(=O)c2ccco2)C(C(=O)NC2CCCC2)c2cccnc2)cc1 (configuration not stated) | inconclusive: 8.91 µM [inhibitor, single point] | 
35 | CCOC(=O)N1CCN(C(=O)c2ccc(CN(c3ccc(C)c(C)c3)S(C)(=O)=O)cc2)CC1 |  | inactive: -7.05%
36 | Nc1ncnc2c1C1(CCCCC1)Cc1ccccc1-2 | inconclusive: 23.1 µM [inhibitor, partial curve, poor fit] | 
37 | c1ccc(-c2cc(-c3ccccc3)[n+](-c3ccccc3)c(-c3ccccc3)c2)cc1 | inconclusive: 3.55 µM [inhibitor, full curve, poor fit] | 
38 | O=C(NCc1ccco1)c1noc2c1CCCCC2 |  | inactive: 8.98%
39 | COC(=O)c1cn(CCOc2ccc(C)cc2)c2ccccc12 | inconclusive: 32.6 µM [inhibitor, single point] | 
40 | CC(=O)Nc1ccc(Oc2sc(C(=O)c3ccccc3)c(N)c2C#N)cc1 | inconclusive: 1.26 µM [activator, single point] | 
41 | CCOC(=O)c1cccc(S(=O)(=O)N(CCO)Cc2cc3cc(OC)c(OC)cc3[nH]c2=O)c1 |  | inactive: -3.26%
42 | O=C1c2ccccc2C(=O)N1CCc1c[nH]c2ccccc12 |  | inactive: -12.7%

Shown in markdown: two of the compounds above

| Row | Structure (SMILES) | Potency | activity change, negative = inhibition |
| --- | --- | --- | --- |
| 29 | CCOc1ccc(-c2cnc(NCc3ccc(C(F)(F)F)cc3)n2C)cc1 | inconclusive: 25.1 µM [inhibitor, single point] |  |
| 37 | c1ccc(-c2cc(-c3ccccc3)[n+](-c3ccccc3)c(-c3ccccc3)c2)cc1 | inconclusive: 3.55 µM [inhibitor, full curve, poor fit] |  |
